No constants are given. Whether binding was seen depends on the method and setting. In cells and extracts the contact can be indirect. A result given as binding can be weak or reduced; the word gives no strength.
Biological target: Adipsin (mouse (from mouse adipose tissue exosomes, in mouse CMECs; the species of the transgene's cDNA is not stated)) (UniProt P03953)
Assay: co-IP; cell lysates in RIPA buffer; specific antibody with Pierce Protein A/G Magnetic Beads; SDS-PAGE and Western blot; which protein was precipitated not given

Sequences of proteins named here, by UniProt entry; tags and fusion partners are left off. A change or cut given only in a name is not applied to a line headed by its entry.
UniProt P03953: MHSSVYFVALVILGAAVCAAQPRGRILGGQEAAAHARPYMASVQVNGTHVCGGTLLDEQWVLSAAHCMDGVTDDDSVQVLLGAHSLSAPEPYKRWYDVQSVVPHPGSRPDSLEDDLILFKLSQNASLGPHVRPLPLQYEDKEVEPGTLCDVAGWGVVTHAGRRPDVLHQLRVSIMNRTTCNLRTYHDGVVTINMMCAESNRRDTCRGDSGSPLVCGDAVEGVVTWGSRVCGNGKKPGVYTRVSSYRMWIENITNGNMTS
UniProt P41241: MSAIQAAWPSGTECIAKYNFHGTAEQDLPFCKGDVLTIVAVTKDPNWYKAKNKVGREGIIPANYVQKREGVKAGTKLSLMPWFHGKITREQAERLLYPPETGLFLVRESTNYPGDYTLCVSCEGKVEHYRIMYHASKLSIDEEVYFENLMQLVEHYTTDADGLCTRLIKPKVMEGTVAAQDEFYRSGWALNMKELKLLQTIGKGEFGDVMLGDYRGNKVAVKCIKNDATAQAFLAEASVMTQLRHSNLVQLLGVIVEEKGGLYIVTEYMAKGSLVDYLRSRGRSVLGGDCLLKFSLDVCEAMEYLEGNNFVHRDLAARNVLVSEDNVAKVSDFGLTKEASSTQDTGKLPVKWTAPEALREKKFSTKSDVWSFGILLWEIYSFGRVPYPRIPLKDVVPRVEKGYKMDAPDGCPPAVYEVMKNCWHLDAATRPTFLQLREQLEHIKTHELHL

In the case of “Tyrosine-protein kinase Csk (from UniProt P41241 1-450) (enzyme)”, the binding was “binds”.
